# Experimental data taken from the supplement of paper PMC3334620.
# In all, about 33,000 sequences were measured (“E-score (-0.5 to 0.5)”: median about -8e-05, highest 2% from about 0.23 on). The list shows a part of the results.
# Biological target: T1, Nrg2 (UniProt P38082)
# T1 sequence: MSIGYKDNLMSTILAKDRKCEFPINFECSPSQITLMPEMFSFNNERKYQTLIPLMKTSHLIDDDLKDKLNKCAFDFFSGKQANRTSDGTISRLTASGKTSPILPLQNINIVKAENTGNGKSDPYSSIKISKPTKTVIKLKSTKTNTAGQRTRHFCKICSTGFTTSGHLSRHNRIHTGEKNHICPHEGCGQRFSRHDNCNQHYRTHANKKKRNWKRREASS
# Assay: PBM E-score (8-mer binding enrichment) (E-score (-0.5 to 0.5)); higher = stronger / more preferred TF binding
# Settings: protein concentration: 100 nM; construct: GST-full length
# Summary of the method: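 Detection of bound protein used fluorescent anti-GST, with scans normalised by masliner. The proteins were GST-tagged yeast transcription factors applied at about 100-200 nM to universal all-10-mer Agilent arrays made double-stranded by primer extension. Each ungapped eight-base word, pooled with its reverse complement, was scored with an E-score from the Universal PBM Analysis Suite.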
row,Sequence,PBM E-score
1,CGGCGGTC,-0.0159
2,CAACACCC,0.135
3,GTGTTGTA,0.0321
4,ACATCTAT,0.128
5,CTCCAGAA,-0.196
6,AAGACATA,0.12
7,CTCGGGGA,-0.0217
8,AACAAGTC,0.0786
9,AGCACCCC,-0.124
10,GGACATAA,0.0478
11,AGTGATGA,-0.11
12,GTGAGTTA,0.094
13,CGCGGGAA,0.14
14,CCGCCGAA,0.0478
15,ACCCAGGC,0.012
16,GGAGATCA,0.0601
17,CAACTGAA,0.0416
18,ATGGGGCA,0.0454
19,AGTATTAA,0.219
20,CTCGCAAG,0.0228
21,GCCCAAGC,0.106
22,CACGGGAC,0.14
23,AATGCGAC,0.0256
24,AGTAGCGC,0.126
25,GCTTGGAC,-0.206

row,Sequence,PBM E-score
1,GGTCGCCA,-0.142
2,CTAAATTA,0.127
3,GCAGCCGC,-0.0337
4,AAAACTTG,0.0487
5,CGGGCCAC,-0.0893
6,CCATCCTA,0.0372
7,ACTAGTGA,-0.167
8,ATTAACCC,0.0948
9,TAGAATCA,-0.0142
10,CTCCCTTA,-0.202
11,CCCATGTC,-0.0113
12,AAGGTGCT,0.0859
13,CCCAATGA,-0.0631
14,TCGAAAGA,0.163
15,GACTAGGC,-0.188
16,CTAAGCAC,0.0598
17,GGTATGGA,-0.135
18,AACAACCA,0.178
19,CTCCATCC,-0.22
20,CATCACGG,-0.023
21,ACGCGTAG,0.116
22,GGATCTAC,-0.0823
23,ATACAAGA,-0.0492
24,CGATGTAA,0.0345
25,AACTGACC,-0.0188

row,Sequence,PBM E-score
1,AGTCCCCG,-0.0464
2,AGTGAGAT,0.0026
3,AATTGATC,0.0837
4,CATAAGGG,0.19
5,CCGCTGGC,-0.181
6,GAAACACC,0.0146
7,AGCCTATA,0.0899
8,GCCCACTA,-0.0031
9,AGGGTCGG,0.0394
10,CGGGTATA,-0.0142
11,AGAGCACT,0.00486
12,TATACCCA,-0.0845
13,ATGCGTAA,0.03
14,CCCTTGCG,-0.0569
15,AGTGTATC,0.204
16,CGCAAGTC,-0.129
17,AGAGGCGG,-0.0539
18,CTACCCGA,-0.164
19,ATGACCGA,-0.0358
20,GGTACCAA,0.0728
21,ATTTTCTA,-0.0141
22,AAAAGTTC,0.103
23,CGGGCACC,-0.213
24,AAACTCTG,0.102
25,CCCTAGGC,-0.111

row,Sequence,PBM E-score
1,GGACCTTA,-0.0226
2,CGTACTAG,0.00346
3,TAGTGAAA,-0.0329
4,CACTGTCC,-0.0235
5,GTACTTTA,0.0371
6,CCCAGCCG,-0.265
7,CTCTCCGC,-0.0768
8,CATTTGAA,0.0105
9,AACTGATA,0.107
10,CTGCAACC,-0.0699
11,CGTGCTGC,-0.153
12,GTTAGTTA,0.0784
13,AATAGATG,0.148
14,ACACTCGA,0.094
15,GCCGAGCC,0.0583
16,AGGTAGAA,0.0985
17,AAAAGGGC,0.12
18,CGAGTTGA,0.0599
19,GCGCATCA,0.0788
20,GCACGGAA,0.0823
21,GGGACTAA,0.0455
22,AAAGGTGC,-0.0687
23,AGCTGCTC,0.0695
24,ATCGTACC,-0.146
25,AAGTCCAA,0.112

row,Sequence,PBM E-score
1,CAGCTTAC,-0.0326
2,GGTAGGCA,-0.199
3,AATTTCCA,0.0794
4,CACGCAAA,-0.0804
5,AAGCGACC,0.106
6,TACAGGGA,0.127
7,CGTCGGAC,-0.212
8,AGAACTGG,0.0995
9,GGGGGCTA,-0.319
10,AACGACCA,-0.127
11,AATACTGA,0.00413
12,AATGGCAT,0.26
13,ATGCTTCA,-0.0393
14,GGAGGACA,-0.0977
15,GGACCAGA,-0.0813
16,CTCCACCA,-0.187
17,GGTCTAAA,0.0765
18,ACATACGG,-0.154
19,TAAGACCA,-0.0131
20,CGAGCTGC,0.12
21,ACTTTCTA,0.0942
22,GAAACAAC,0.0259
23,CACGAGCG,-0.125
24,GGACCCAC,0.0687
25,GACAAAGA,0.0907

row,Sequence,PBM E-score
1,GGCACAAA,0.0328
2,CAGTGTAA,0.155
3,CACTCCTC,-0.095
4,AGCTCCGG,-0.134
5,CTACGACC,-0.0715
6,CCGGTCTA,-0.336
7,AACCATTA,0.11
8,AGGAGCTC,-0.235
9,CAGGTCTA,-0.0487
10,AGACCATC,0.0238
11,GAGGATGA,-0.0182
12,ACGGAAGA,-0.0304
13,ATATTATA,0.0282
14,ATACACCG,-0.0841
15,AAGCGGCC,-0.185
16,CGGCCTGA,-0.17
17,CCGTACCG,-0.293
18,ATTTAGAA,0.0479
19,CTGGTCAA,0.0409
20,CTAGACCA,-0.131
21,AAGTCTCA,-0.0124
22,AACGCATC,-0.131
23,CTAATGAA,0.149
24,AAAGATAG,-0.188
25,AGTTAAGC,0.029

row,Sequence,PBM E-score
1,ACTAACAC,0.062
2,CGCGAAAA,0.193
3,CTTTTGAA,-0.0196
4,CCTAATCG,0.16
5,CTTGGAGA,0.00437
6,ATAATACG,0.18
7,CACTCACG,0.0689
8,ACATACTG,0.0364
9,CAGGCCCG,-0.209
10,AACGGAAA,0.13
11,CGGTGCTC,0.0363
12,CTTCTCCC,-0.189
13,AGTCTCGA,-0.131
14,GTCCAGCA,-0.101
15,CTGATACC,0.00659
16,TCGCGTAA,0.143
17,CGGCGCTC,-0.0921
18,GACTCATA,-0.0851
19,AGAAATCG,0.0626
20,GTACTGAC,-0.0272
21,ACATACCT,-0.111
22,GCGATTCC,0.169

# Quoted from the listing.
# In PBM E-score, AGACCATC is listed with 0.0238
# In PBM E-score, TAGAATCA is listed with -0.0142
# In PBM E-score, AAAAGTTC is listed with 0.103
